# Among all 580,000 compounds or so, about 6,100 (1.1%) were called active. The shares of active, inactive and inconclusive entries below differ from those in the screen. Calls come from the whole dose curve; as a rule, active = well fitted inhibition curve with a large enough effect; inconclusive = small, poorly fitted or top-dose-only effect, or another doubt; inactive = no such curve, though single readings can be large or run the other way. Where the call is inconclusive, the potency comes from a doubtful curve fit.
# By UniProt entry, the sequences of proteins in these tests, tags left out.
# UniProt P18054, whole entry, looked up: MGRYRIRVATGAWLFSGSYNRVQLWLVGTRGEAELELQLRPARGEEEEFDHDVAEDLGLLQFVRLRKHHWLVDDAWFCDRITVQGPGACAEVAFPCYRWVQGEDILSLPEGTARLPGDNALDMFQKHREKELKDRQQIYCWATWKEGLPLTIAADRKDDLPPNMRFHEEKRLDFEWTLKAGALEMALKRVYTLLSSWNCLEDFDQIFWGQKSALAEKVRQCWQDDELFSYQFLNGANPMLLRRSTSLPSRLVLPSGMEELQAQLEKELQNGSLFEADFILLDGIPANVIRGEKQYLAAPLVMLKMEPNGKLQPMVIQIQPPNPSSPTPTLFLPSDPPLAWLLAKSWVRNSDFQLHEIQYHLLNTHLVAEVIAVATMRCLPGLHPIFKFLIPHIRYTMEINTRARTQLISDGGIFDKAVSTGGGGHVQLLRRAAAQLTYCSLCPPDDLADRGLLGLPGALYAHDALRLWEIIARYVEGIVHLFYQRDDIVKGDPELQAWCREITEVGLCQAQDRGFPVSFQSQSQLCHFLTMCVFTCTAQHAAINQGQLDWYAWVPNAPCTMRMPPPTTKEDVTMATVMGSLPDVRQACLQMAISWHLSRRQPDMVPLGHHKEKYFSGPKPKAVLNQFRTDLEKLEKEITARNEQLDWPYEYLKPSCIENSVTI
# Molecular target: Polyunsaturated fatty acid lipoxygenase ALOX12 (Homo sapiens) (UniProt P18054)
# Assay: Primary qHTS assay for inhibitors of human arachidonate 12S-lipoxygenase (ALOX12): Round 2
# Settings: purified 12hLO, xylenol orange hydroperoxide absorbance; activity change, negative = inhibition: at 108 µM (top of the series) unless noted
# Summary of the method: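 Purified human 12hLO at 150 nM in 25 mM Hepes, 0.01% Triton X-100, pH 7.0, preincubated 15 min at room temperature with compound. Reaction started with 40 uM arachidonic acid, 30 min at room temperature. Hydroperoxide measured by Fe-xylenol orange, 573/405 nm absorbance ratio.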
# % is set by controls: 0 for no effect and ±100 for the full control effect; potency is the fitted concentration of half-maximal effect.
Compound,Potency,"activity change, negative = inhibition"
CC[C@@]1(C(=O)OC)N[C@H](CN(C)C(=O)NC(C)C)[C@@H]2C(=O)N(Cc3ccccc3)C(=O)[C@@H]21,"inconclusive: 7.08 µM [inhibitor, full curve]",–
N#Cc1ccc(NCCc2ccccn2)c([N+](=O)[O-])c1,–,inactive: 15.3%
O=C(C=Cc1ccccc1F)c1ccccc1,–,inactive: 3.52%
CCCNC(=O)c1cc2c(c(-c3cccc(-c4ccccc4F)c3)n1)[C@H](CCO)N(C(=O)CC1CC1)C2,–,inactive: 0%
O=C(O)COc1ccccc1/C=C1\SC(=O)N(Cc2ccc(F)cc2)C1=O,"inconclusive: 39.8 µM [inhibitor, partial curve, poor fit]",–
Fc1ccc(Oc2ccc3nnc(-c4ccccc4)n3n2)cc1,–,inactive: 2.47%
CC(O)(c1ccccc1)c1nc(-c2cccc(F)c2)cs1 (configuration not stated),"inconclusive: 100 µM [inhibitor, single point]",–
O=C(NCCN1CCC(n2c(=O)[nH]c3ccccc32)CC1)c1cc(F)cc(F)c1,"inconclusive: 39.8 µM [inhibitor, partial curve, poor fit]",–
O=C(CNC(=O)c1cccc(OC(F)F)c1)OCc1cc(=O)n2cc(Br)ccc2n1,"inconclusive: 44.7 µM [inhibitor, full curve, poor fit]",–
Cc1ccc(OCc2nnc(SCC(=O)Nc3ccc(N4CCOCC4)cc3)o2)cc1,–,inactive: -13.3%
O=C(Nc1ccc2c(c1)C(=O)c1ccccc1-2)c1ccc2c(c1)OCO2,–,inactive: 5.81%
CC(C)C(=O)Nc1ncc(Cc2ccccc2Cl)s1,–,inactive: 0%
Cc1ccccc1Nc1cc(C(=O)NCc2cccs2)c2ccccc2n1,"inconclusive: 100 µM [inhibitor, partial curve, poor fit]",–
CC(C)NC(=O)NC1=C(C#N)C(C)(C)Cc2ccccc21,–,inactive: 11.7%
CN(C(=O)c1cccc(NC(=O)Cc2cccc(NC(=O)C3CCCN(C(=O)C4CCC4)C3)c2)c1)C1CC1 (configuration not stated),"inconclusive: 89.1 µM [inhibitor, single point]",–
Cc1cc(C)c2sc(NC(=O)C3=COCCO3)nc2c1,–,inactive: 318%
CCc1cc2c(SC(C)C(=O)NC3CCCC3)ncnc2s1 (configuration not stated),–,inactive: 7.88%
COc1ccc(C(C(=O)NC2CCCC2)N(C(=O)c2snc(-c3ccc(F)cc3)c2N)c2cccc(F)c2)cc1 (configuration not stated),–,inactive: -15.7%
Cc1ccc(-c2cc(-c3ccc(F)cc3)c(C#N)c(N)n2)o1,active: 7.08 µM,–

Compound,Potency,"activity change, negative = inhibition"
CC(C)(C)NC(=O)NC(=O)CSc1ncccn1,–,inactive: -2.6%
CC(C)CC(=O)N1CCN(S(=O)(=O)c2ccc(Cl)cc2)CC1,"inconclusive: 39.8 µM [inhibitor, partial curve, poor fit]",–
Cc1cccc(OCCn2c(SCC(=O)O)nc3ccccc32)c1,"inconclusive: 126 µM [inhibitor, partial curve, poor fit]",–
Cc1ccc(CN2CCN(/N=C/c3ccc(C(=O)O)cc3)CC2)c(C)c1,–,inactive: 0.766%
COc1ccc(CC(=O)NCc2n[nH]c(=S)n2-c2cccc(C)c2)cc1,–,inactive: -6.22%
CC(=O)N1CCC(NC2(Cc3cc(COc4ccccc4)on3)COC2)CC1,–,inactive: 1.28% [at 176 µM]
CCCN(C)C1CN(Cc2cn(Cc3ccc(F)cc3)nn2)S(=O)(=O)C1 (configuration not stated),"inconclusive: 141 µM [inhibitor, single point]",–
CC(CC(=O)O)c1c[nH]c2ccccc12 (configuration not stated),"inconclusive: 39.8 µM [inhibitor, full curve, poor fit]",–
Cn1c(=O)[nH]c(=O)c2c1nc(N1CCN(C/C=C/c3ccccc3)CC1)n2Cc1ccc(Cl)cc1,"inconclusive: 100 µM [inhibitor, single point]",–
S=C1NCCc2ccc(Cl)cc2C1c1ccccc1 (configuration not stated),"inconclusive: 15.8 µM [inhibitor, partial curve, poor fit]",–
c1ccc(CN2CCN(c3ncccn3)CC2)cc1,"inconclusive: 0.501 µM [inhibitor, full curve, poor fit]",–
COc1cccc(CCNC(=O)c2c(C)noc2-c2ccc3c(c2)OCO3)c1,–,inactive: -9.72%
CCOc1ccc(C(CN2CCOCC2)C(C)=O)cc1OC (configuration not stated),active: 31.6 µM,–
COc1cc(C(c2nnnn2C2CCCC2)N2CCc3ccccc3C2)ccc1O (configuration not stated),"inconclusive: 5.01 µM [inhibitor, full curve, poor fit]",–
O=C(Cc1csc(Nc2nc(=S)[nH]c3ccccc23)n1)NCc1cccc(Cl)c1,–,inactive: 4.37%
O=C(COc1ccc(S(=O)(=O)N2CCOCC2)cc1Cl)NC1CC1,"inconclusive: 141 µM [inhibitor, single point]",–
C#Cc1ccc([C@H]2C=C(C(=O)NCc3nc4ccccc4[nH]3)O[C@@H](OCc3ccc(CO)cc3)C2)cc1,–,inactive: -17.2%
N#CCOC(=O)[C@H](Cc1c[nH]c2ccccc12)NS(=O)(=O)c1ccc(Cl)cc1,"inconclusive: 79.4 µM [inhibitor, partial curve, poor fit]",–

# 2 compounds drawn at random from those above:
Compound,Potency,"activity change, negative = inhibition"
N#CCOC(=O)[C@H](Cc1c[nH]c2ccccc12)NS(=O)(=O)c1ccc(Cl)cc1,"inconclusive: 79.4 µM [inhibitor, partial curve, poor fit]",–
COc1cccc(CCNC(=O)c2c(C)noc2-c2ccc3c(c2)OCO3)c1,–,inactive: -9.72%
